Data reported in patent publication US5776950 (dated 1998).

Assay: general procedure: solution-phase peptide synthesis; DCC or DIC with DMAP; cyclisation with 1-methyl-2-chloropyridinium iodide and tr
[1] = late stage modification step, run 1
[2] = late stage modification step, run 2

Row | Substance | step yield (coupling step) | step yield (late stage modification step) | further results
1 | BOC-L-Pro-D-Lac-L-MeLeu-D-PhLac-L-MeLeu-D-Lac-L-MeLeu-D-PhLac-OBn |  |  | step yield (coupling step, run 1): 61% yield; step yield (coupling step, run 2): 48%
2 | BOC-L-MeLeu-D-Lac-L-MeLeu-D-Lac-L-MeMeu-D-Lac-OBn | 68% yield |  | 
3 | BOC-L-MeLeu-D-Lac-L-MeLeu-D-Lac-OBn | 88% yield |  | 
4 | BOC-L-MeLeu-D-PhLac-L-MeLeu-D-Lac-L-MeMeu-D-PhLac-OH |  | 81% | 
5 | BOC-L-MeLeu-D-PhLac-L-MeLeu-D-Lac-OBn | 57% |  | 
6 | BOC-L-Pro-D-Lac-L-MeLeu-D-PhLac-OBn | 82% yield |  | 
7 | L-MeLeu-D-Lac-L-MeLeu-D-Lac-L-MeLeu-D-Lac-L-Pip-D-Lac-OH |  | 89% | 
8 | BOC-L-Pro-D-Lac-L-MeLeu-D-PhLac-OH |  | 98% | 
9 | BOC-L-MeLeu-D-PhLac-L-MeLeu-D-Lac-OH |  | 96% | 
10 | L-MeLeu-D-PhLac-L-MeLeu-D-Lac-L-MeLeu-D-PhLac-L-Pip-D-Lac-OH |  | 88% | 
11 | BOC-L-MeLeu-D-Lac-L-MeLeu-D-PhLac-OBn | 58% yield |  | 
12 | L-Pro-D-Lac-L-MeLeu-D-PhLac-L-MeLeu-D-Lac-L-MeLeu-D-PhLac-OBn |  |  | step yield [1]: 90% yield; step yield [2]: 94%
13 | L-MeLeu-D-PhLac-L-MeLeu-D-Lac-L-MeLeu-D-PhLac-L-Tic-D-Lac-OH |  | 85% | 
14 | BOC-L-MeLeu-D-PhLac-L-MeLeu-D-Lac-L-MeLeu-D-PhLac-L-Pip-D-Lac-OBn | 24% yield |  | 
15 | BOC-L-MeLeu-D-Lac-L-MeLeu-D-Lac-L-MeLeu-D-Lac-L-Tic-D-Lac-OBn | 75% yield |  | 
16 | BOC-L-MeLeu-D-PhLac-L-MeLeu-D-Lac-L-MeMeu-D-PhLac-OBn | 52% yield |  | 
17 | L-MeLeu-D-PhLac-L-MeLeu-D-Lac-L-MeLeu-D-PhLac-L-Tic-D-Lac-OBn |  | 90% yield | 
18 | L-MeLeu -D-Lac-L-MeLeu-D-Lac-L-MeLeu-D-Lac-L-Tic-D-Lac-OH |  | 80% | 
19 | L-MeLeu-D-Lac-L-MeLeu-D-Lac-L-MeLeu-D-Lac-L-Pip-D-Lac-OBn |  | 83% yield | 
20 | BOC-L-MeLeu-D-Lac-L-MeLeu-D-Lac-OH |  | 96% | 
21 | L-MeLeu-D-Lac-L-MeLeu-D-Lac-L-MeLeu-D-Lac-L-Tic-D-Lac-OBn |  | 89% yield | 
22 | BOC-L-MeLeu-D-Lac-L-MeLeu-D-Lac-L-MeMeu-D-Lac-OH |  | 95% | 
23 | BOC-L-MeLeu-D-PhLac-L-MeLeu-D-Lac-L-MeLeu-D-PhLac-L-Tic-D-Lac-OBn | 24% yield |  | 
24 | L-MeLeu-D-Lac-L-MeLeu-D-PhLac-OBn |  | 90% yield | 
25 | L-MeLeu-D-PhLac-L-MeLeu-D-Lac-L-MeLeu-D-PhLac-L-Pip-D-Lac-OBn |  | 84% yield | 
26 | BOC-L-MeLeu-D-Lac-L-MeLeu-D-Lac-L-MeLeu-D-Lac-L-Pip-D-Lac-OBn | 41% yield |  | 
27 | L-Pro-D-Lac-L-MeLeu-D-PhLac-L-MeLeu-D-Lac-L-MeLeu-D-PhLac-OH |  |  | step yield [1]: 95%; step yield [2]: 97%
